PubChem BioAssay AID1053208 – Peter MacCallum Cancer Centre – 2014

Purpose: 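Synthetic lethal interactions between gene loss and doxorubicin in osteosarcoma cells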 (primary screen)
Cells: mouse osteosarcoma cells, early-passage culture from an engineered mouse model of fibroblastic bone tumour
Reagents: siRNA pool against mouse genes, 40 nM
Time to read-out: about 120 h (48 h before drug, then 72 h with drug)
Challenge: doxorubicin 100 nM for 72 h, roughly 30-40% inhibitory dose
Read-out: 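Viability read as ATP luminescence after 72 h of 100 nM doxorubicin or none, duplicate wells averaged, scaled to non-targeting siRNA, then expressed as robust z-scores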
Scale: viability z-score with doxorubicin: higher = more viable cells under doxorubicin; viability z-score without drug: higher = more viable cells with knock-down alone
Active means: 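a pool counts as active when its viability z-score with doxorubicin is -2 or below and its z-score without drug lies between -2 and 2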
Shown is one part, drawn at random, of about 17,000 deposited reagents. 788 of them (4.7%) count as active. 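Calls rest on z-score classes alone; an extra cut-off of viability at most 70% of control was not applied to them.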 A number with no mark means an inactive call. Further read-outs or replicates are left out here.

no.	gene knocked down	combined z-score class	viability z-score with doxorubicin	viability z-score without drug
1	Epm2a (epilepsy, progressive myoclonic epilepsy, type 2 gene alpha)	no change with or without drug	-1.35	-0.51
2	Large2 (LARGE xylosyl- and glucuronyltransferase 2)	no change with or without drug	0.34	-0.17
3	Rapgef2 (Rap guanine nucleotide exchange factor (GEF) 2)	no change with or without drug	0.56	0.34
4	Paxx (non-homologous end joining factor)	no change with or without drug	0.56	0.17
5	Lrfn1	low cell count with doxorubicin only (active)	-3.15	-1.18
6	Gpn1 (GPN-loop GTPase 1)	low cell count with and without drug	-4.27	-2.87
7	Dcxr (dicarbonyl L-xylulose reductase)	no change with or without drug	1.35	-0.84
8	Asb6 (ankyrin repeat and SOCS box-containing 6)	no change with or without drug	0.79	0.34
9	Or13c3 (olfactory receptor family 13 subfamily C member 3)	no change with or without drug	0.67	-1.18
10	Gsx1 (GS homeobox 1)	no change with or without drug	-0.22	-0.84
11	Otos (otospiralin)	low cell count with doxorubicin only (active)	-2.36	-1.69
12	Esm1 (endothelial cell-specific molecule 1)	no change with or without drug	-1.24	-0.84
13	Lncpint (long non-protein coding RNA, Trp53 induced transcript)	no change with or without drug	0.9	0.84
14	1700010I14Rik (RIKEN cDNA 1700010I14 gene)	no change with or without drug	-0.9	-0.84
15	Stat5a (signal transducer and activator of transcription 5A)	no change with or without drug	-1.12	0.34
16	Dyrk3 (dual-specificity tyrosine phosphorylation regulated kinase 3)	no change with or without drug	0	-0.84
17	Dpyd (dihydropyrimidine dehydrogenase)	no change with or without drug	0.22	-1.52
18	Homer3 (homer scaffolding protein 3)	no change with or without drug	0.22	0.84
19	Arfgef2 (ARF guanine nucleotide exchange factor 2)	no change with or without drug	-0.9	-0.17
20	Pafah1b3	no change with or without drug	0.67	-0.84
21	Cldn2 (claudin 2)	no change with or without drug	1.12	1.01
22	Cd6 (CD6 antigen)	no change with or without drug	1.57	0.84
23	Cyp2b9 (cytochrome P450, family 2, subfamily b, polypeptide 9)	no change with or without drug	1.12	0.84
24	Cyp3a16 (cytochrome P450, family 3, subfamily a, polypeptide 16)	no change with or without drug	0.34	0.51
25	Dbx2 (developing brain homeobox 2)	low cell count with doxorubicin only (active)	-3.15	-0.67
26	Rnf11 (ring finger protein 11)	no change with or without drug	-0.22	0.17
27	Ankrd33 (ankyrin repeat domain 33)	no change with or without drug	-1.12	0.51
28	Krt16 (keratin 16)	no change with or without drug	-0.22	-0.51
29	Zfp119a (zinc finger protein 119a)	no change with or without drug	-0.22	0.34
30	Fsd1 (fibronectin type 3 and SPRY domain-containing protein)	no change with or without drug	-1.8	-0.51
31	Hs6st3 (heparan sulfate 6-O-sulfotransferase 3)	high cell count with and without drug	2.47	2.19
32	Tyw1 (tRNA-yW synthesizing protein 1 homolog (S. cerevisiae))	no change with or without drug	-0.45	1.18
33	Sdc3 (syndecan 3)	no change with or without drug	0	1.18
34	Gprin3 (GPRIN family member 3)	no change with or without drug	-1.35	0.17
35	Tlr5 (toll-like receptor 5)	no change with or without drug	-0.45	-0.17
36	Dgkk (diacylglycerol kinase kappa)	no change with or without drug	0.22	0.84
37	Or7g32 (olfactory receptor family 7 subfamily G member 32)	no change with or without drug	0.56	1.01
38	Ppp1r2-ps9	no change with or without drug	-1.35	-0.17
39	Rbm12 (RNA binding motif protein 12)	high cell count with and without drug	3.04	4.22
40	Gins3 (GINS complex subunit 3)	no change with or without drug	0.22	-0.84
41	Tssk1 (testis-specific serine kinase 1)	low cell count with doxorubicin only (active)	-2.92	-1.52
42	Atl2 (atlastin GTPase 2)	no change with or without drug	0.11	-0.84
43	Cd200 (CD200 molecule)	no change with or without drug	0.34	0.51
44	Gpr37l1 (G protein-coupled receptor 37-like 1)	no change with or without drug	0.22	1.85
45	Aoc1l3 (amine oxidase copper containing 1-like 3)	no change with or without drug	0.11	0.51
46	Ddc (dopa decarboxylase)	no change with or without drug	0.34	-0.67
47	Strip2 (striatin interacting protein 2)	no change with or without drug	-1.01	0.67
48	Lsm8 (LSM8 homolog, U6 small nuclear RNA associated)	no change with or without drug	0	-1.35
49	Apoh (apolipoprotein H)	no change with or without drug	1.12	-0.34
50	Dnmt3a (DNA methyltransferase 3A)	no change with or without drug	0.67	0.51

Part of the list above, set out differently:
| gene knocked down | combined z-score class | viability z-score with doxorubicin | viability z-score without drug |
| --- | --- | --- | --- |
| Ankrd33 (ankyrin repeat domain 33) | no change with or without drug | -1.12 | 0.51 |
| Krt16 (keratin 16) | no change with or without drug | -0.22 | -0.51 |
| Zfp119a (zinc finger protein 119a) | no change with or without drug | -0.22 | 0.34 |
| Fsd1 (fibronectin type 3 and SPRY domain-containing protein) | no change with or without drug | -1.8 | -0.51 |
